Experiment [1] has as its target PRP19-Myc (without domain mutation) (UniProt Q9UMS4). Put plainly: co-IP; HEK293T cells transfected with PRP19-Myc plasmids (domain mutations) for 48 h; lysates precipitated with anti-DDX5 and with anti-Myc antibodies, western blot.
For experiment [2], the target named is Pre-mRNA processing factor 19 (PRP19), endogenous in HCC cells (not stated (endogenous in HCC cells; human Huh7, PLC/PRF/5 or mouse Hepa1-6)) (UniProt Q9UMS4). Put plainly: co-IP; reciprocal co-IP of endogenous PRP19 and DDX5 in HCC cells; IP lysis buffer, antibody overnight at 4 °C, Protein A magnetic beads, five washes, western blot. For orientation: A western blot detects proteins with antibodies after separation by electrophoresis.

Chains of the proteins cited; added tags and fusions are not shown. Lines headed by an entry give the natural chain unless they say otherwise; changes in a name come on top.
UniProt Q9UMS4: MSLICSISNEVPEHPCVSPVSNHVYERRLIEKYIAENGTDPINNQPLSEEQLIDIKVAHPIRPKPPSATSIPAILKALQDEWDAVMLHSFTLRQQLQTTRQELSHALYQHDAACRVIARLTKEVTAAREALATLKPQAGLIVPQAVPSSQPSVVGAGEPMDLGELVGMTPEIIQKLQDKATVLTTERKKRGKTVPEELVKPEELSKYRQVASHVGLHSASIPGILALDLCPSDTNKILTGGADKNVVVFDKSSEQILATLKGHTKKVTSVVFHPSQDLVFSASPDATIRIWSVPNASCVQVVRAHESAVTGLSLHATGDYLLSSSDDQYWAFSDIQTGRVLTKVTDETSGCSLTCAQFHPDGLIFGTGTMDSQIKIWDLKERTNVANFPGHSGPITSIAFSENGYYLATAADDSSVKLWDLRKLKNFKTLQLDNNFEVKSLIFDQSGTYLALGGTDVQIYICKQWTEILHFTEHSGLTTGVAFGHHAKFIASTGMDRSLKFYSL
UniProt P17844: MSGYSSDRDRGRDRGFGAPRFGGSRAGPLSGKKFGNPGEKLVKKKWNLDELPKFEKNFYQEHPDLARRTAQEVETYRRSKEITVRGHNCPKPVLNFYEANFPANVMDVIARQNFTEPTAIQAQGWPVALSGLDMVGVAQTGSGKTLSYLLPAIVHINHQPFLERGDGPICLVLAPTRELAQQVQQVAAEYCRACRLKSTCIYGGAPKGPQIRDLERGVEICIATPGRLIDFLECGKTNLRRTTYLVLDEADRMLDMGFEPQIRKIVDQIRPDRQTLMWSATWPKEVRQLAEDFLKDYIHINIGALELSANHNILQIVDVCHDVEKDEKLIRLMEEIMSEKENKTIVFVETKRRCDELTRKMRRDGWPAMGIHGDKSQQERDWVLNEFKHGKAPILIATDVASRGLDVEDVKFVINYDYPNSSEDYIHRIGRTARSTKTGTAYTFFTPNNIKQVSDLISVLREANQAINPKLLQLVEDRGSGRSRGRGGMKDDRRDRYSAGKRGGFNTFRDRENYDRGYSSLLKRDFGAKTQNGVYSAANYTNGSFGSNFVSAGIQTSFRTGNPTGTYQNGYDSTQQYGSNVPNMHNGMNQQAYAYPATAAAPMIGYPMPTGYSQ

These are yes or no findings as the source states them, for the method shown. Binding seen in cells or lysates may run through a third protein. Some results given as binding are weak or reduced against the parent protein; the word gives no strength.

Take “DDX5 in HEK293T cells (from UniProt P17844 1-614)”: in experiment [1], the binding entry is reported as “binds”.
On to “DEAD-box helicase 5 (DDX5), endogenous in HCC cells (from UniProt P17844 1-614)”, for which the binding result in experiment [2] is “binds”.
